This passage reports binding results from article PMC4832068.

These are yes or no findings as the source states them, for the method shown. Some entries that bind do so weakly or less than the wild type. Where a sequence is shown, tags or fusion partners need not be part of it.

Substrate in the assay: T1, C terminus FLAG-tagged Clec4A4 on DC2.4 cells (DC2.4-expressing Clec4A4-GFP) (mouse) (UniProt Q5YIR8)
T1 sequence: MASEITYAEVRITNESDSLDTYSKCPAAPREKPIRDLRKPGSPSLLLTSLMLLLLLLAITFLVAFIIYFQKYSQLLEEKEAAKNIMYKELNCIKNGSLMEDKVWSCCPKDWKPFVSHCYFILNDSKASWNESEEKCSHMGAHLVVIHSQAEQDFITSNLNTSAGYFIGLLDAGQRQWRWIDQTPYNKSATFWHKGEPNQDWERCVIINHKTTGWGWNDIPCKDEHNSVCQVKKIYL
Kind of assay: flow cytometry on cells; DC2.4, DC2.4-expressing mock-GFP or DC2.4-expressing Clec4A4-GFP stained with 1 ug of Fc fusion protein followed by anti-human IgG-PE; only the binder purified. (In flow cytometry, cells or beads pass a laser one at a time.)

B1: Clec4A4-huIgFc (extracellular domain of Clec4A4 fused to the Fc fragment of human IgG) (Fc fusion, UniProt Q5YIR8 68-236)
chain: YFQKYSQLLEEKEAAKNIMYKELNCIKNGSLMEDKVWSCCPKDWKPFVSHCYFILNDSKASWNESEEKCSHMGAHLVVIHSQAEQDFITSNLNTSAGYFIGLLDAGQRQWRWIDQTPYNKSATFWHKGEPNQDWERCVIINHKTTGWGWNDIPCKDEHNSVCQVKKIYL
Consider B1, for which the binding entry is “binds”.

B2: SIGNR1-huIgFc (Fc fusion, UniProt Q8CJ91 74-325)
chain: QVSKTPNTERQKEQEKILQELTQLTDELTSRIPISQGKNESMQAKITEQLMQLKTELLSRIPIFQGQNESIQEKISEQLMQLKAELLSKISSFPVKDDSKQEKIYQQLVQMKTELFRLCRLCPWDWTFLLGNCYFFSKSQRNWNDAVTACKEVKAQLVIINSDEEQTFLQQTSKAKGPTWMGLSDLKKEATWLWVDGSTLSSRFQKYWNRGEPNNIGEEDCVEFAGDGWNDSKCELKKFWICKKSATPCTEG
Consider B2, for which the binding result was “binds”.
